{"source": "PubChem BioAssay AID1259405 (NCATS, 2018)", "screen": "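Mouse-designed siRNAs used to find CHO productivity engineering targets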 (primary screen)", "system": "Chinese hamster CHO-K1 ovary cells with stable secreted eGFP expression", "reagent": "single siRNA against mouse genes, 0.8 pmol siRNA per well (2 µl of 400 nM stock)", "duration": "3 days", "read-out": "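Per-well intracellular GFP measured by laser scanning cytometry, plus viability from ATP luminescence, each relative to plate median of non-targeting control wells, in %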", "reading the numbers": "GFP, % of control: higher = more GFP per well, higher productivity; viability (ATP), % of control: higher = more viable cells (more ATP)", "rule for the call": "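Called active when intracellular GFP, relative to negative control, is at or above 120%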", "note": "The whole screen tested about 50,000 reagents; below is an unselected part. In the full data, about 4,000 (8%) got an active call. 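Mouse siRNA library applied to hamster cells; one well for each siRNA.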 The numbers tell different reagents against one gene apart."}
{"target": "Flt4", "reagent no.": 1, "GFP, % of control": 73.5, "viability (ATP), % of control": 89.1, "outcome": "inactive"}
{"target": "Flt4", "reagent no.": 2, "GFP, % of control": 68, "viability (ATP), % of control": 82.3, "outcome": "inactive"}
{"target": "Flt4", "reagent no.": 3, "GFP, % of control": 80, "viability (ATP), % of control": 55.9, "outcome": "inactive"}
{"target": "Or52a5", "reagent no.": 1, "GFP, % of control": 81.1, "viability (ATP), % of control": 71.3, "outcome": "inactive"}
{"target": "Or52a5", "reagent no.": 2, "GFP, % of control": 66, "viability (ATP), % of control": 27.1, "outcome": "inactive"}
{"target": "Or52a5", "reagent no.": 3, "GFP, % of control": 59.4, "viability (ATP), % of control": 134, "outcome": "inactive"}
{"target": "Cdkn2b", "reagent no.": 1, "GFP, % of control": 54.5, "viability (ATP), % of control": 58.7, "outcome": "inactive"}
{"target": "Cdkn2b", "reagent no.": 2, "GFP, % of control": 75.9, "viability (ATP), % of control": 45.5, "outcome": "inactive"}
{"target": "Cdkn2b", "reagent no.": 3, "GFP, % of control": 85.8, "viability (ATP), % of control": 108, "outcome": "inactive"}
{"target": "Pantr1", "reagent no.": 1, "GFP, % of control": 83.6, "viability (ATP), % of control": 59.5, "outcome": "inactive"}
{"target": "Pantr1", "reagent no.": 2, "GFP, % of control": 69.3, "viability (ATP), % of control": 71.9, "outcome": "inactive"}
{"target": "Pantr1", "reagent no.": 3, "GFP, % of control": 91.9, "viability (ATP), % of control": 100, "outcome": "inactive"}
{"target": "Ror2", "reagent no.": 1, "GFP, % of control": 59.9, "viability (ATP), % of control": 48, "outcome": "inactive"}
{"target": "Daam2", "reagent no.": 1, "GFP, % of control": 132, "viability (ATP), % of control": 60.8, "outcome": "active"}
{"target": "Daam2", "reagent no.": 2, "GFP, % of control": 92.5, "viability (ATP), % of control": 82.9, "outcome": "inactive"}
{"target": "Daam2", "reagent no.": 3, "GFP, % of control": 78.5, "viability (ATP), % of control": 72.6, "outcome": "inactive"}
{"target": "5330416C01Rik", "reagent no.": 1, "GFP, % of control": 102, "viability (ATP), % of control": 62.4, "outcome": "inactive"}
{"target": "5330416C01Rik", "reagent no.": 2, "GFP, % of control": 67.3, "viability (ATP), % of control": 74.5, "outcome": "inactive"}
{"target": "5330416C01Rik", "reagent no.": 3, "GFP, % of control": 80.6, "viability (ATP), % of control": 107, "outcome": "inactive"}
{"target": "H2-M10.1", "reagent no.": 1, "GFP, % of control": 108, "viability (ATP), % of control": 78, "outcome": "inactive"}
{"target": "H2-M10.1", "reagent no.": 2, "GFP, % of control": 63.1, "viability (ATP), % of control": 70.7, "outcome": "inactive"}
{"target": "H2-M10.1", "reagent no.": 3, "GFP, % of control": 95.4, "viability (ATP), % of control": 82.9, "outcome": "inactive"}
{"target": "Bpifa3", "reagent no.": 1, "GFP, % of control": 81.6, "viability (ATP), % of control": 83.6, "outcome": "inactive"}
{"target": "Bpifa3", "reagent no.": 2, "GFP, % of control": 78.2, "viability (ATP), % of control": 71.8, "outcome": "inactive"}
{"target": "Bpifa3", "reagent no.": 3, "GFP, % of control": 74.5, "viability (ATP), % of control": 70.1, "outcome": "inactive"}
{"target": "Mtnr1b", "reagent no.": 1, "GFP, % of control": 55.3, "viability (ATP), % of control": 73.9, "outcome": "inactive"}
{"target": "Mtnr1b", "reagent no.": 2, "GFP, % of control": 59.4, "viability (ATP), % of control": 72.7, "outcome": "inactive"}
{"target": "Mtnr1b", "reagent no.": 3, "GFP, % of control": 112, "viability (ATP), % of control": 68.9, "outcome": "inactive"}
{"target": "Rasip1", "reagent no.": 1, "GFP, % of control": 81.7, "viability (ATP), % of control": 84.6, "outcome": "inactive"}
{"target": "Rasip1", "reagent no.": 2, "GFP, % of control": 166, "viability (ATP), % of control": 74.6, "outcome": "active"}
{"target": "Rasip1", "reagent no.": 3, "GFP, % of control": 49.5, "viability (ATP), % of control": 66, "outcome": "inactive"}
{"target": "Abcc3", "reagent no.": 1, "GFP, % of control": 118, "viability (ATP), % of control": 114, "outcome": "inactive"}
{"target": "Abcc3", "reagent no.": 2, "GFP, % of control": 68.4, "viability (ATP), % of control": 74.9, "outcome": "inactive"}
{"target": "Abcc3", "reagent no.": 3, "GFP, % of control": 69.3, "viability (ATP), % of control": 77, "outcome": "inactive"}
{"target": "Mad2l1", "reagent no.": 1, "GFP, % of control": 95.6, "viability (ATP), % of control": 93.8, "outcome": "inactive"}
{"target": "Mad2l1", "reagent no.": 2, "GFP, % of control": 58.7, "viability (ATP), % of control": 92.7, "outcome": "inactive"}
{"target": "Mad2l1", "reagent no.": 3, "GFP, % of control": 61.9, "viability (ATP), % of control": 77.3, "outcome": "inactive"}
{"target": "Ca6", "reagent no.": 1, "GFP, % of control": 96.5, "viability (ATP), % of control": 118, "outcome": "inactive"}
{"target": "Ca6", "reagent no.": 2, "GFP, % of control": 70.5, "viability (ATP), % of control": 67, "outcome": "inactive"}
{"target": "Or5b12", "reagent no.": 1, "GFP, % of control": 95.6, "viability (ATP), % of control": 70.4, "outcome": "inactive"}
{"target": "Or5b12", "reagent no.": 2, "GFP, % of control": 74.8, "viability (ATP), % of control": 87.6, "outcome": "inactive"}
{"target": "Or5b12", "reagent no.": 3, "GFP, % of control": 87.9, "viability (ATP), % of control": 78.4, "outcome": "inactive"}

Part of the list above, set out differently.
{"target":"Bpifa3","reagent no.":2,"GFP, % of control":78.2,"viability (ATP), % of control":71.8,"outcome":"inactive"}
{"target":"Bpifa3","reagent no.":3,"GFP, % of control":74.5,"viability (ATP), % of control":70.1,"outcome":"inactive"}
{"target":"Mtnr1b","reagent no.":1,"GFP, % of control":55.3,"viability (ATP), % of control":73.9,"outcome":"inactive"}
{"target":"Mtnr1b","reagent no.":2,"GFP, % of control":59.4,"viability (ATP), % of control":72.7,"outcome":"inactive"}
{"target":"Mtnr1b","reagent no.":3,"GFP, % of control":112,"viability (ATP), % of control":68.9,"outcome":"inactive"}
{"target":"Rasip1","reagent no.":1,"GFP, % of control":81.7,"viability (ATP), % of control":84.6,"outcome":"inactive"}
